# Results reported in the supplement of paper PMC8728848.
# Some of the results follow.
# B1: GST Gap3 (Streptococcus parasanguinis) (protein)
# chain: MTKQLISEIYWNEIRKGENYLYGSQIKFQEDLVNFYNPQLASGKPIVTFKSRTNYQGDRHSPDLPILIQGNRYLLEYQIDAVPANSFFLQLDFFNRQAEQIESIVLRNSGESFIFPKDTFTYTLTLMSAGCQSVTYQKFMIYDINDEEKKNHIVENRYLRELLPKDLDLVKNLIEYI
# What was measured:
# Assay in all cases: glycan array binding signal (z-score within array); higher = stronger binding
# Settings in all cases: glycan notation: IUPAC condensed, linker removed
# [1] = target: Neu5Ac(a2-8)Neu5Ac(a2-3)Gal(b1-4)Glc
# Outline: (§1)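 Glycan array data were curated from 3228 arrays in the Consortium for Functional Glycomics database and kept only where the protein sequence was available. Glycan names were converted to IUPAC-condensed notation, and columns mapping to the same glycan were averaged. The binding signal is a within-array Z-score, averaged across arrays of the same protein sequence at different concentrations or buffers and across linkers. Negative Z-scores can be read as non-binding.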
# [2] = target: Neu5Ac(a2-8)Neu5Ac(a2-3)Gal(b1-4)GlcNAc
# Outline: as §1
# [3] = target: Neu5Ac(a2-8)Neu5Ac(a2-3)[Gal(b1-3)GalNAc(b1-4)]Gal(b1-4)Glc
# Outline: as §1
# [4] = target: Neu5Ac(a2-8)Neu5Ac(a2-3)[GalNAc(b1-4)]Gal(b1-4)Glc
# Outline: as §1
# [5] = target: Neu5Ac(a2-8)Neu5Ac(a2-8)Neu5Ac
# Outline: as §1
# [6] = target: Neu5Ac(a2-8)Neu5Ac(a2-8)Neu5Ac(a2-3)Gal(b1-4)Glc
# Outline: as §1
# [7] = target: Neu5Ac(a2-8)Neu5Ac(a2-8)Neu5Ac(a2-3)[Gal(b1-3)GalNAc(b1-4)]Gal(b1-4)Glc
# Outline: as §1
# [8] = target: Neu5Ac(a2-8)Neu5Ac(a2-8)Neu5Ac(a2-3)[GalNAc(b1-4)]Gal(b1-4)Glc
# Outline: as §1
# [9] = target: Neu5Ac(a2-8)Neu5Ac(a2-8)Neu5Ac(a2-8)Neu5Ac(a2-3)[GalNAc(b1-4)]Gal(b1-4)Glc
# Outline: as §1
# [10] = target: Neu5Ac(a2-8)Neu5Gc(a2-3)Gal(b1-4)GlcNAc
# Outline: as §1
# [11] = target: Neu5Ac(b2-6)Gal(b1-4)GlcNAc
# Outline: as §1
# Neu5Ac(b2-6)GalNAc = target: Neu5Ac(b2-6)GalNAc
# Outline: as §1
# [12] = target: Neu5Ac9Ac(a2-3)Gal(b1-3)GlcNAc
# Outline: as §1
# [13] = target: Neu5Ac9Ac(a2-3)Gal(b1-4)GlcNAc
# Outline: as §1
# [14] = target: Neu5Ac9Ac(a2-6)Gal(b1-4)GlcNAc
# Outline: as §1
# [15] = target: Neu5Gc(a2-3)Gal(b1-3)GlcNAc
# Outline: as §1
# [16] = target: Neu5Gc(a2-3)Gal(b1-3)[Fuc(a1-4)]GlcNAc
# Outline: as §1
# Neu5Gc(a2-3)Gal(b1-4)Glc = target: Neu5Gc(a2-3)Gal(b1-4)Glc
# Outline: as §1
# [17] = target: Neu5Gc(a2-3)Gal(b1-4)GlcNAc
# Outline: as §1
# [18] = target: Neu5Gc(a2-3)Gal(b1-4)GlcNAc(b1-3)Gal(b1-4)GlcNAc(b1-2)Man(a1-3)[Neu5Gc(a2-3)Gal(b1-4)GlcNAc(b1-3)Gal(b1-4)GlcNAc(b1-2)Man(a1-6)]Man(b1-4)GlcNAc(b1-4)GlcNAc
# Outline: as §1
# [19] = target: Neu5Gc(a2-3)Gal(b1-4)[Fuc(a1-3)]GlcNAc
# Outline: as §1
# [20] = target: Neu5Gc(a2-6)Gal(b1-4)GlcNAc
# Outline: as §1
# Neu5Gc(a2-6)GalNAc = target: Neu5Gc(a2-6)GalNAc
# Outline: as §1
# [21] = target: Neu5Gc(a2-8)Neu5Ac(a2-3)Gal(b1-4)GlcNAc
# Outline: as §1
# [22] = target: Neu5Gc(a2-8)Neu5Gc(a2-3)Gal(b1-4)GlcNAc
# Outline: as §1
# [23] = target: Neu5Gc(a2-8)Neu5Gc(a2-3)Gal(b1-4)GlcNAc(b1-3)Gal(b1-4)GlcNAc
# Outline: as §1
# [24] = target: Neu5Gc(a2-8)Neu5Gc(a2-6)Gal(b1-4)GlcNAc
# Outline: as §1
# [25] = target: Neu5Gc(b2-6)Gal(b1-4)GlcNAc
# Outline: as §1
binder,measurement,setting,value
B1,glycan array binding signal (z-score),[1],-0.318
same,glycan array binding signal (z-score),[2],-0.321
same,glycan array binding signal (z-score),[3],0.348
same,glycan array binding signal (z-score),[4],0.096
same,glycan array binding signal (z-score),[5],0.585
same,glycan array binding signal (z-score),[6],0.221
same,glycan array binding signal (z-score),[7],-0.597
same,glycan array binding signal (z-score),[8],-0.357
same,glycan array binding signal (z-score),[9],0.791
same,glycan array binding signal (z-score),[10],-0.586
same,glycan array binding signal (z-score),[11],-0.516
same,glycan array binding signal (z-score),Neu5Ac(b2-6)GalNAc,-0.391
same,glycan array binding signal (z-score),[12],-0.579
same,glycan array binding signal (z-score),[13],-0.631
same,glycan array binding signal (z-score),[14],-0.31
same,glycan array binding signal (z-score),[15],-0.403
same,glycan array binding signal (z-score),[16],-0.364
same,glycan array binding signal (z-score),Neu5Gc(a2-3)Gal(b1-4)Glc,-0.537
same,glycan array binding signal (z-score),[17],-0.209
same,glycan array binding signal (z-score),[18],-0.268
same,glycan array binding signal (z-score),[19],-0.183
same,glycan array binding signal (z-score),[20],-0.236
same,glycan array binding signal (z-score),Neu5Gc(a2-6)GalNAc,-0.529
same,glycan array binding signal (z-score),[21],-0.62
same,glycan array binding signal (z-score),[22],-0.359
same,glycan array binding signal (z-score),[23],-0.362
same,glycan array binding signal (z-score),[24],-0.267
same,glycan array binding signal (z-score),[25],0.409
